# Reference: PMC11152124
# By UniProt entry, the sequences of proteins in these tests, tags left out. Residues count along the entry.
# UniProt O15379: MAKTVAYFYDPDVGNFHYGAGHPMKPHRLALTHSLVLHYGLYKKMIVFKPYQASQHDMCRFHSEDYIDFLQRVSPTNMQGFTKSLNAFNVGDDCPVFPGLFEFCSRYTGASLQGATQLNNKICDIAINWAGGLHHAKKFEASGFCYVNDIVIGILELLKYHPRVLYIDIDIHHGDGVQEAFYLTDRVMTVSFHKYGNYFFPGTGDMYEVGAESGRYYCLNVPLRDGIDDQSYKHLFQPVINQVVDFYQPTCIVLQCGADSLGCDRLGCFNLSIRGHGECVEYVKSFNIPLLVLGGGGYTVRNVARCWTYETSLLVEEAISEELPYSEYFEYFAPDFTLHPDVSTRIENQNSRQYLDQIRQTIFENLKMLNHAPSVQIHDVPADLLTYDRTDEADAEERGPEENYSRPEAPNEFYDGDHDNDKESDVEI
# UniProt Q8TEM1, residues 27-1887: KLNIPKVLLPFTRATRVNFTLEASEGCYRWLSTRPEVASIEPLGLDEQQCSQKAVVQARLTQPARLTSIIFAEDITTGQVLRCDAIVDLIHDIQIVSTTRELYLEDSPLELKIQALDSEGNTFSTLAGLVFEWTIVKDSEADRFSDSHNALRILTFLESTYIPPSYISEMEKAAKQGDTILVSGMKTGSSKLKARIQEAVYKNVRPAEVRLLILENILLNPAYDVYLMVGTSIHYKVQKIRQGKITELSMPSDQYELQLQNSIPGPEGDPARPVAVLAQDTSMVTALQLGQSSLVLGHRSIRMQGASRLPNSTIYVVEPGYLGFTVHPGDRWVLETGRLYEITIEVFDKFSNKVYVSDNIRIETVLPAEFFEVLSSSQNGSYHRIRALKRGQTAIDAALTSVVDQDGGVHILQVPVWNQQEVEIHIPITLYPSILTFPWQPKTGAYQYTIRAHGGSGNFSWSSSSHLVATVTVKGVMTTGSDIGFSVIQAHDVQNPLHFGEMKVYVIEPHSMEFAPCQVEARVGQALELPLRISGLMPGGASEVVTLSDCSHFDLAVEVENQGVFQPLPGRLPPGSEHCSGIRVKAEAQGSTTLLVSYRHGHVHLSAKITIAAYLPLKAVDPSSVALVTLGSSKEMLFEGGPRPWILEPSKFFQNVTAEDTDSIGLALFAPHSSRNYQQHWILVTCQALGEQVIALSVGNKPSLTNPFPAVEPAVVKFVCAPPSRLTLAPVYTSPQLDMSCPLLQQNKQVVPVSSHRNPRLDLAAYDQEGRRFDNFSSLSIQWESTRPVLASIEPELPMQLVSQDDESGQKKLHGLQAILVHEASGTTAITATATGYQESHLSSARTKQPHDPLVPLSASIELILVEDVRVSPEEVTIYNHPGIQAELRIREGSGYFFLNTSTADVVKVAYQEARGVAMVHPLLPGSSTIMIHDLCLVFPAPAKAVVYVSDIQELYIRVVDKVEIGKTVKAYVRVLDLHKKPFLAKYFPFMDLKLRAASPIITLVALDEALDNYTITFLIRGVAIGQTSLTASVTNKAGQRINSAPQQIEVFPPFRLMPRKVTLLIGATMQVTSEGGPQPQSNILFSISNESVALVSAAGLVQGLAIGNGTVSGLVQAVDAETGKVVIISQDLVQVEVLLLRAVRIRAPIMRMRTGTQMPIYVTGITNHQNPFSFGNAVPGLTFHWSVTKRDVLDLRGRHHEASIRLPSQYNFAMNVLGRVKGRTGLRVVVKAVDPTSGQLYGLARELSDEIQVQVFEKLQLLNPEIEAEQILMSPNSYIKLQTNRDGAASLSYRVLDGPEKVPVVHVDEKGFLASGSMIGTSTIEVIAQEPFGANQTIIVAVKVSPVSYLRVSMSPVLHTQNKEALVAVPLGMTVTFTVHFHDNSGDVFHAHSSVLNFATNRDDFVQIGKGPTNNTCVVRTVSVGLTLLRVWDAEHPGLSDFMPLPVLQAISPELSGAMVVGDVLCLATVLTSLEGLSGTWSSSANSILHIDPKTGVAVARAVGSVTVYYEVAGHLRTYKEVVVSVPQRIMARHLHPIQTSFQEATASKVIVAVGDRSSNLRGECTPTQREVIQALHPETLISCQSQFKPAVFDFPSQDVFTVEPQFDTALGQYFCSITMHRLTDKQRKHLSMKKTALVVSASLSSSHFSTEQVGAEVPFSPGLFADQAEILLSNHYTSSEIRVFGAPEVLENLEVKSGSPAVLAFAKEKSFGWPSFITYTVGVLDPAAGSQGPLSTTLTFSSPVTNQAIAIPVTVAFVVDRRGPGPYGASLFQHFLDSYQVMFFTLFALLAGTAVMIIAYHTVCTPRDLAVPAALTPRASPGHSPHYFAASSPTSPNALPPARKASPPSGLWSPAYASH
# UniProt P49792: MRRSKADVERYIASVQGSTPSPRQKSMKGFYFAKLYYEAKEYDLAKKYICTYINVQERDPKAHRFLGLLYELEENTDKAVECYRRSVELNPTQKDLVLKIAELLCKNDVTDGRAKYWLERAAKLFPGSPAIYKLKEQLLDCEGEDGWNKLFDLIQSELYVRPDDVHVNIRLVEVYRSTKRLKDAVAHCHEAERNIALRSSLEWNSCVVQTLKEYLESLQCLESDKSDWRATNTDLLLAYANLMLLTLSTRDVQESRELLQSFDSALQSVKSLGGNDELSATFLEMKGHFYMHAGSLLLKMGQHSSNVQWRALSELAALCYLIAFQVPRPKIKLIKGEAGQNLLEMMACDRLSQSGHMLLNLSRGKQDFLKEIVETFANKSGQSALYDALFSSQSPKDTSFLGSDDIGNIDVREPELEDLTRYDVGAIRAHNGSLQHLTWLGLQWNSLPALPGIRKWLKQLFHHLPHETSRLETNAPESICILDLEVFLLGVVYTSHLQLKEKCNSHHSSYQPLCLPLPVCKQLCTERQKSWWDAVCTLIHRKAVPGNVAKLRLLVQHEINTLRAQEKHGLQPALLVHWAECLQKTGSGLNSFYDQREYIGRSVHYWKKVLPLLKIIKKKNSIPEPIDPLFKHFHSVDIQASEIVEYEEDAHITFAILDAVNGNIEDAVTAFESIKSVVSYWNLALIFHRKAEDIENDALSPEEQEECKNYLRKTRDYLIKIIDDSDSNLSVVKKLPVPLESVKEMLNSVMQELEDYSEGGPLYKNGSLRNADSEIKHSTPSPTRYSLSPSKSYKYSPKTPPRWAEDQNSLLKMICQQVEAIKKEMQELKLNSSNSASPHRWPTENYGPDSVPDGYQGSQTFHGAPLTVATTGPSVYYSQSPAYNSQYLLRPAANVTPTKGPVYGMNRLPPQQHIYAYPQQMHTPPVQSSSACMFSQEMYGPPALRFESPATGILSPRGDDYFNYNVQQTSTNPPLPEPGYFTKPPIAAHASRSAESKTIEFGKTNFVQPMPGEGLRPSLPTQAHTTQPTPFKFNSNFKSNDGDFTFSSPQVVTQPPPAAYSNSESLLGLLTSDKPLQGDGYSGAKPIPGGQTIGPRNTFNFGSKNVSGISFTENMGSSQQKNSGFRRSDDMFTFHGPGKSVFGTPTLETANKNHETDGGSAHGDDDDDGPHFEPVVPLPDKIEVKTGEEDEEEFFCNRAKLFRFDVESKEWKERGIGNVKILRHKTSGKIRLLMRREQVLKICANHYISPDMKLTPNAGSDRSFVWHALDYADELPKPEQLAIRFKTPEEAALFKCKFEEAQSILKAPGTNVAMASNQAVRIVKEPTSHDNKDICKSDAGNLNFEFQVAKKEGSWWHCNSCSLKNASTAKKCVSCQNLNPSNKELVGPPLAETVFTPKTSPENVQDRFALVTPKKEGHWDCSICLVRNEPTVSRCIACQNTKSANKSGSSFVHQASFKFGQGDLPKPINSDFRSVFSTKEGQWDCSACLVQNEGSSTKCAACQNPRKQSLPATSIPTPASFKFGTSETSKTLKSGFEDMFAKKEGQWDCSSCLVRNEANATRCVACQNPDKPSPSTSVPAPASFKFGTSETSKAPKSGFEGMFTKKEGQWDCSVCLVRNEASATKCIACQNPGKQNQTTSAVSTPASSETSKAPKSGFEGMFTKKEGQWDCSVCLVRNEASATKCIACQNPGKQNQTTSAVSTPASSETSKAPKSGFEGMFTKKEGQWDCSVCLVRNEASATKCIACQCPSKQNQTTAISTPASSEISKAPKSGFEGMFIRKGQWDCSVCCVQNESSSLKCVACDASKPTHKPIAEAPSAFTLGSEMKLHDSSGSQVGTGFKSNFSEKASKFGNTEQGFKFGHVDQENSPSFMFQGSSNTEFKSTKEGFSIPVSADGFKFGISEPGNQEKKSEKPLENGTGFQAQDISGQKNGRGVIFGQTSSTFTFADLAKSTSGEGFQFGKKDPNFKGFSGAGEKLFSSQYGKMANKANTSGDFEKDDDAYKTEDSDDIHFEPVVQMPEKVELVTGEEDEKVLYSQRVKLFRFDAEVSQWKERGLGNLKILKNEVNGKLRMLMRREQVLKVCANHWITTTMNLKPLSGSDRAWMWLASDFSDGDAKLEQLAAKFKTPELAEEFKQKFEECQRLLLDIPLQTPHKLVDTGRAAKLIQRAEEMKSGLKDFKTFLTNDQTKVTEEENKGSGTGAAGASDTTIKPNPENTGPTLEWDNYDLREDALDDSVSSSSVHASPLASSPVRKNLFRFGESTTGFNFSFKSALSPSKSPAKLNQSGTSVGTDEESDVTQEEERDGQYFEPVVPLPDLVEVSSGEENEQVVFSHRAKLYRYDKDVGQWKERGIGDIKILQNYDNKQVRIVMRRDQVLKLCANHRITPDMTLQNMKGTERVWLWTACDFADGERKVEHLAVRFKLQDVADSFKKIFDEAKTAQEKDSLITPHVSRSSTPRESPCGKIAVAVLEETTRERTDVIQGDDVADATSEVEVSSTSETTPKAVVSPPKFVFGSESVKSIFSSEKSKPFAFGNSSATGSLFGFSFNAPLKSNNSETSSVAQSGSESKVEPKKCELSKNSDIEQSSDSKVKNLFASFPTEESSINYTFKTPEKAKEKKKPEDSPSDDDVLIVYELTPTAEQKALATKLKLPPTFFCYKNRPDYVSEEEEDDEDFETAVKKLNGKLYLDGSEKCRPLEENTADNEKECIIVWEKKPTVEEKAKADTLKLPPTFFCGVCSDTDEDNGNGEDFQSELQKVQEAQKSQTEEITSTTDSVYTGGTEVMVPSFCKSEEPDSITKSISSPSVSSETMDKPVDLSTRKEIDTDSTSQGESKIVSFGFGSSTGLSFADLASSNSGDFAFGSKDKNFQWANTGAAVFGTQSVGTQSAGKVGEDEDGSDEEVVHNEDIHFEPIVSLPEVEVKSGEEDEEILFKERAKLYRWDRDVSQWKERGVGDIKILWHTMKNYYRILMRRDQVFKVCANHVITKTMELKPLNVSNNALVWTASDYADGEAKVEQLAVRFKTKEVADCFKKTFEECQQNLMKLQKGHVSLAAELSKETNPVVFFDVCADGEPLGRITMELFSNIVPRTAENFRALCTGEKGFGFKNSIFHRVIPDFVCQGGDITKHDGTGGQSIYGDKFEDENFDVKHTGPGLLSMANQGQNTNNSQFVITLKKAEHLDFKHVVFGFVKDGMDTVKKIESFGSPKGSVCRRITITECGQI
# Results are given in words; binding and its absence hold for the method and conditions named. In cells and extracts the contact can be indirect. Some results given as binding are weak or reduced against the parent protein; the word gives no strength.
# B1: Nup96 (protein, UniProt P52948 881-1817)
# chain: SKYGLQDSDEEEEEHPSKTSTKKLKTAPLPPASQTTPLQMALNGKPAPPPQSQSPEVEQLGRVVELDSDMVDITQEPVLDTMLEESMPEDQEPVSASTHIASSLGINPHVLQIMKASLLTDEEDVDMALDQRFSRLPSKADTSQEICSPRLPISASHSSKTRSLVGGLLQSKFTSGAFLSPSVSVQECRTPRAASLMNIPSTSSWSVPPPLTSVFTMPSPAPEVPLKTVGTRRQLGLVPREKSVTYGKGKLLMDMALFMGRSFRVGWGPNWTLANSGEQLNGSHELENHQIADSMEFGFLPNPVAVKPLTESPFKVHLEKLSLRQRKPDEDMKLYQTPLELKLKHSTVHVDELCPLIVPNLGVAVIHDYADWVKEASGDLPEAQIVKHWSLTWTLCEALWGHLKELDSQLNEPREYIQILERRRAFSRWLSCTATPQIEEEVSLTQKNSPVEAVFSYLTGKRISEACSLAQQSGDHRLALLLSQFVGSQSVRELLTMQLVDWHQLQADSFIQDERLRIFALLAGKPVWQLSEKKQINVCSQLDWKRSLAIHLWYLLPPTASISRALSMYEEAFQNTSDSDRYACSPLPSYLEGSGCVIAEEQNSQTPLRDVCFHLLKLYSDRHYDLNQLLEPRSITADPLDYRLSWHLWEVLRALNYTHLSAQCEGVLQASYAGQLESEGLWEWAIFVLLHIDNSGIREKAVRELLTRHCQLLETPESWAKETFLTQKLRVPAKWIHEAKAVRAHMESDKHLEALCLFKAEHWNRCHKLIIRHLASDAIINENYDYLKGFLEDLAPPERSSLIQDWETSGLVYLDYIRVIEMLRHIQQVDCSGNDLEQLHIKVTSLCSRIEQIQCYSAKDRLAQSDMAKRVANLLRVVLSLHHPPDRTSDSTPDPQRVPLRLLAPHIGRLPMPEDYAMDELRSLTQSYLRELAVGSL
# Target: histone deacetylase 3 (HDAC3) (human (endogenous in 293T)) (UniProt O15379)
# Experiment: co-IP; HDAC3 immunoprecipitated with an anti-HDAC3 antibody (Cell Signaling Technology, 85057) and Protein A/G magnetic beads from 293T extracts (scramble control or Nup358-targeting shRNA, doxycycline); IP buffer 50 mM Tris pH 7.4, 150 mM NaCl, 0.5% NP-40, 1 mM EDTA, 1 mM MgCl2, 1 mM dithiothreitol, 20 mM N-ethylmaleimide; overnight at 4°C; control rabbit IgG; Western blot
row,binding,Molecule
1,binds,Nup210 (from UniProt Q8TEM1 27-1887)
2,binds,"Nup358, also known as RanBP2 (from UniProt P49792 1-3224)"
3,no binding,B1
